Results from US9949970B2, “Synthesis of new benzothiazole derivatives as potential anti-tubercular agents” (priority 2010, dated 2018).
At least one structure is not confirmed: it was looked up by name or label, or the drawing left a doubt.

Test system: M. tuberculosis isolates and drug resistance strains
Assay type: cell-based, Mycobacterium tuberculosis

O=C(Nc1nc2ccc(NC(=O)c3ccc([N+](=O)[O-])o3)cc2s1)c1ccccc1 [Compound 6a, N2-[2-(benzoylamino)-1,3-benzothiazol-6-yl]-5-nitrofuramide] was tested, and the “In vitro activity (result in words)” value was “good in vitro activity”.
